Source: US20020061531
For at least one entry, the source does not settle the construct or the ends of the probe. For part of these data: No signal at the amounts used counts as a negative.

Assays:
[1] = system: anti-BPDE-DNA monoclonal antibody 8E11 (Mus musculus); test: competition with a labelled probe; conditions: protein details: BD PharMingen, single-stranded DNA
[2] = system: anti-BPDE-DNA monoclonal antibody 8E11 (Mus musculus); test: binding assay; conditions: CE/LIF, protein details: BD PharMingen, label: 5'-TMR, single-stranded DNA
[3] = system: anti-BPDE-DNA monoclonal antibody E5; test: binding assay; conditions: CE/LIF, protein details: cell supernatant, Shell, label: 5'-TMR, single-stranded DNA
[4] = system: anti-BPDE-DNA monoclonal antibody 5D11 (Mus musculus); test: binding assay; conditions: single (+/-)-anti-BPDE-N2-dG adduct in the SEQ:5 segment; CE/LIF; less complex than 8E11; protein details: BD PharMingen; label: 5'-TMR; single-stranded DNA
[5] = system: polyclonal mouse IgG (negative control) (Mus musculus); test: binding assay; conditions: single (+/-)-anti-BPDE-N2-dG adduct in the SEQ:5 segment; negative control; protein details: Calbiochem; label: 5'-TMR; single-stranded DNA
[6] = unmodified control 90-mer, variant of TMR-BPDE-90-mer, heat-denatured

“CCCATTATGCATAACC [BPDE-16-mer, unlabeled competitor]”: binds ([1]; single (+/-)-anti-BPDE-N2-dG adduct at the central G, competes with TMR-BPDE-16-mer and TMR-BPDE-90-mer, primary labeled complex lost above 250 nM, variant of TMR-BPDE-16-mer).

CCCATTATGCATAACC [TMR-BPDE-16-mer]: binds ([2]; single (+/-)-anti-BPDE-N2-dG adduct at the central G, 1:1 and 1:2 complexes, 80-85% of 24 nM in 1:1 complex at 50-100 nM Ab, tris-glycine pH 8.3).

“CCTTAAGCTTCCTCAACCACTTACCATACTCGAGATTCCCATTATGCATAACCGTCATATGCCGCCTCTGACCTTCCTAGAATTCCATCC [BPDE-90-mer, unlabeled competitor]”: binds ([1]; single (+/-)-anti-BPDE-N2-dG adduct in the SEQ:5 segment, competes with TMR-BPDE-16-mer, mixed Ab(16mer*)(90mer) complex seen, variant of TMR-BPDE-90-mer, heat-denatured).

“CCTTAAGCTTCCTCAACCACTTACCATACTCGAGATTCCCATTATGCATAACCGTCATATGCCGCCTCTGACCTTCCTAGAATTCCATCC [TMR control 90-mer (no BPDE), heat-denatured]”: no binding [3, 6]; no binding [2, 6].

“CCTTAAGCTTCCTCAACCACTTACCATACTCGAGATTCCCATTATGCATAACCGTCATATGCCGCCTCTGACCTTCCTAGAATTCCATCC [TMR-BPDE-90-mer, heat-denatured]”: binds [4]; binds ([3]; single (+/-)-anti-BPDE-N2-dG adduct in the SEQ:5 segment, less complex than 8E11); no binding [5]. “CCTTAAGCTTCCTCAACCACTTACCATACTCGAGATTCCCATTATGCATAACCGTCATATGCCGCCTCTGACCTTCCTAGAATTCCATCC [TMR-BPDE-90-mer, heat-denatured]”: binds ([2]; single (+/-)-anti-BPDE-N2-dG adduct in the SEQ:5 segment, about 60% of 50 nM bound at ~140 nM Ab, weaker than 16-mer, tris-glycine pH 8.3).
